Measured values as given in the supplement of paper PMC8104966.
This is one part of the list. This data set is noisy: repeats of one test often differ as much as different tests do.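 Fusion between ACE2-bearing and full-length-spike-bearing U2OS cells was measured by imaging as the percentage of nuclei with both cell types' fluorescent markers. An inhibitory hit is a non-toxic compound whose fusion z-score is below -3, more than three standard deviations beneath the plate's DMSO wells.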

These compounds were tested on U2OS ACE2 x SARS-CoV-2 spike co-culture (assay: cell-cell fusion (fraction fused) z-score vs plate DMSO control; higher = more fusion). Settings: 30 µM; 5 h; toxicity class: non-toxic, passed QC.

Compound | cell-cell fusion (z-score)
CCC1(CC)C(=O)C=CNC1=O | inactive: 1.23
O=c1[nH]c(=O)n([C@H]2C[C@H](O)[C@@H](CO)O2)cc1I [Dendrid] | inactive: 4.03
O=c1cc(N2CCOCC2)oc2c1ccc1ccccc12 | inactive: 0.867
COc1ccc2cc([C@@H](C)C(=O)O)ccc2c1 [(R)-Naproxen] | inactive: 2.9
Cc1ncsc1CCCl.Cl [Chlormethiazole hydrochloride] | inactive: 2.38
CN(C(=O)CCCOc1ccc2[nH]c(=O)ccc2c1)C1CCCCC1 [Cilostamide] | inactive: 2.8
O=C(O)Cc1cc(I)c(Oc2ccc(O)c(I)c2)c(I)c1 | inactive: -1.07
COc1cc(C(O)C(=O)O)ccc1O (racemic) [(±)-Vanillylmandelic acid] | inactive: 2.74
COc1ccc2c(c1)O[C@H]1c3ccc(OC)cc3OC[C@@H]21 | inactive: 3.54
O=C(O)CN(CCN(CC(=O)O)CC(=O)O)CCN(CC(=O)O)CC(=O)O [Pentetic Acid] | inactive: 2.69
CCN(CC)CC(=O)Oc1ccc(NC(C)=O)cc1.Cl [Propacetamol Hydrochloride] | inactive: 0.645
CCCCC(CC)CN1CN(CC(CC)CCCC)CC(C)(N)C1 (configuration not stated) | inactive: 2.59
Cc1[nH]c2ccccc2c1CN(C)C | inactive: 3.27
Nc1ccc2c3c(cccc13)C(=O)NC2=O [4-Amino-1,8-naphthalimide] | inactive: 6.55
COc1ccc2nc3cc(Cl)ccc3c(Nc3cc(CN4CCCC4)c(O)c(CN4CCCC4)c3)c2n1.O=P(O)(O)O.O=P(O)(O)O.O=P(O)(O)O.O=P(O)(O)O | inactive: 1.48
C#C[C@]1(O)CC[C@H]2[C@@H]3CCC4=CC(=O)CC[C@@H]4[C@H]3CC[C@@]21C [Norethindrone] | inactive: 3.68
CC(C)CC(NC(=O)CN)C(=O)NC(Cc1ccccc1)C(=O)O (configuration not stated) | inactive: 2.73
COc1cc2occc2c2oc(=O)ccc12 | inactive: 2.39
N#Cc1c(Cl)c(Cl)c(Cl)c(C#N)c1Cl | inactive: 0.724
CC[C@@H](C(=O)[C@@H](C)[C@@H](O)[C@H](C)[C@@H]1O[C@@H]([C@@H](CC)C(=O)[O-])CC[C@@H]1C)[C@H]1OC2(C=C[C@@H](O)[C@]3(CC[C@@](C)([C@H]4CC[C@](O)(CC)[C@H](C)O4)O3)O2)[C@H](C)C[C@@H]1C.[Na+] (some centres not stated) | inactive: -0.31
CN(C)[C@@H]1C(O)=C(C(N)=O)C(=O)[C@@]2(O)C(O)=C3C(=O)c4c(O)cccc4[C@@](C)(O)[C@H]3C[C@@H]12.Cl [Tetracycline hydrochloride] | inactive: 2.92
NC[C@@H]1O[C@H](O[C@@H]2[C@@H](CO)OC(O[C@@H]3[C@@H](O)[C@H](N)C[C@H](N)[C@H]3OC3O[C@H](CN)[C@@H](O)[C@H](O)[C@H]3N)[C@@H]2O)[C@H](N)[C@@H](O)[C@@H]1O.O=S(=O)(O)O (some centres not stated) | inactive: 0.593
CN(Cc1cnc2nc(N)nc(N)c2n1)c1ccc(C(=O)N[C@@H](CCC(=O)O)C(=O)O)cc1 [Abitrexate (Methotrexate)] | inactive: 0.877

Compound | cell-cell fusion (z-score)
C=CC(C1=CC(=O)C(OC)=CC1=O)c1ccccc1 (configuration not stated) | inactive: 2.15
C[C@@H](c1ncncc1F)[C@](O)(Cn1cncn1)c1ccc(F)cc1F | inactive: 2.52
C[C@@H](c1ncncc1F)[C@](O)(Cn1cncn1)c1ccc(F)cc1F [Voriconazole] | inactive: 2.08
CC(=O)[C@H]1CC[C@H]2[C@@H]3C[C@H](C)C4=CC(=O)CC[C@]4(C)[C@H]3[C@@H](O)C[C@]12C [Medrysone] | inactive: -1.02
C[C@H]1CC2C3CCC4=CC(=O)C=C[C@]4(C)[C@@]3(F)[C@@H](O)C[C@]2(C)[C@@]1(O)C(=O)CO (some centres not stated) | inactive: 1.15
C[C@H]1CC2C3CCC4=CC(=O)C=C[C@]4(C)[C@@]3(F)[C@@H](O)C[C@]2(C)[C@@]1(O)C(=O)CO (some centres not stated) [Betamethasone] | inactive: 1.67
CCCc1nc(C)c2c(=O)[nH]c(-c3cc(S(=O)(=O)N4CCN(CC)CC4)ccc3OCC)nn12.Cl | inactive: 0.279
O=C([O-])[C@H](O)[C@@H](O)[C@H](O)[C@H](O)CO.O=C([O-])[C@H](O)[C@@H](O)[C@H](O)[C@H](O)CO.[Ca+2] [Calcium gluconate] | inactive: 3.02
C/C=C\C1=C(C(=O)O)N2C(=O)C(NC(=O)C(N)c3ccc(O)cc3)C2SC1 (configuration not stated) | inactive: 3.62
COc1cc2nc(N3CCN(C(=O)C4COc5ccccc5O4)CC3)nc(N)c2cc1OC.CS(=O)(=O)O (configuration not stated) [Doxazosin mesylate] | inactive: 0.171
CCCCCCCCCCCCCCCCCCc1ccc(C(=O)/C=C/C(=O)O)cc1 | inactive: 3.19
COc1cc2c(cc1OC)-c1cc3ccc(OC)c(OC)c3c[n+]1CC2.[Cl-] | inactive: 2.75
COc1cc2c3cc1Oc1cc(ccc1O)C[C@@H]1c4c(cc(OC)c(O)c4Oc4ccc(cc4)C[C@@H]3N(C)CC2)CC[N+]1(C)C.Cl.[Cl-] | inactive: 1.39
C=C1C[C@@]23CC[C@H]4[C@@](C)(CCC[C@@]4(C)C(=O)OC4OC(CO)C(O)C(O)C4O)[C@@H]2CC[C@]1(OC1OC(CO)C(O)C(O)C1OC1OC(CO)C(O)C(O)C1O)C3 (some centres not stated) [Stevioside] | inactive: 2.4
COc1ccc(OC)c(C(O)CNC(=O)CN)c1.Cl (configuration not stated) [Midodrine hydrochloride] | inactive: 3.32
COc1c2ccoc2c(OC)c2oc(=O)ccc12 | inactive: 2.58
COC(=O)[C@H](c1ccccc1Cl)N1CCc2sccc2C1.O=S(=O)(O)O | inactive: 1.22
Cl.NCCCC(N)C(=O)O (configuration not stated) | inactive: -0.141
CC1(C)C=Cc2cc3ccc(=O)oc3cc2O1 | inactive: 1.25
CCN1CCC(CNC(=O)c2cc(S(N)(=O)=O)ccc2OC)C1 (configuration not stated) | inactive: 2.85
CC(N)C12CC3CC(CC(C3)C1)C2.Cl (configuration not stated) | inactive: -1.52
[NH3+][Pt]1([NH3+])[O]C(=O)C2(CCC2)C(=O)[O]1 [Carboplatin] | inactive: 1.23
CN(C)CCOC(c1ccccc1)c1ccccc1.Cl [Diphenhydramine hydrochloride] | inactive: 2.99

Shown as a markdown table: entries from further up

| Compound | cell-cell fusion (z-score) |
| --- | --- |
| COc1cc2c3cc1Oc1cc(ccc1O)C[C@@H]1c4c(cc(OC)c(O)c4Oc4ccc(cc4)C[C@@H]3N(C)CC2)CC[N+]1(C)C.Cl.[Cl-] | inactive: 1.39 |
| C=C1C[C@@]23CC[C@H]4[C@@](C)(CCC[C@@]4(C)C(=O)OC4OC(CO)C(O)C(O)C4O)[C@@H]2CC[C@]1(OC1OC(CO)C(O)C(O)C1OC1OC(CO)C(O)C(O)C1O)C3 (some centres not stated) [Stevioside] | inactive: 2.4 |

Following part:

Compound | cell-cell fusion (z-score)
CN(C)CCOC(c1ccccc1)c1ccccc1.Cl | inactive: 2.17
O=C(O)[C@H](O)[C@@H](O)C(=O)O.c1cnc2cc3c(cc2n1)C1CNCC3C1 [Varenicline Tartrate] | inactive: 3.77
Br.CN1C2CCC1CC(OC(=O)C(O)c1ccccc1)C2 (racemic) [DL-Homatropine hydrobromide] | inactive: 3.57
FC(F)(F)c1ccc(CNc2ccc(Cc3c[nH]c4ncc(Cl)cc34)cn2)cn1 [Pexidartinib] | inactive: 3.35
CCC(=O)O[C@]1(C(=O)SCF)[C@H](C)CC2C3CC(F)C4=CC(=O)C=C[C@]4(C)C3(F)[C@@H](O)C[C@@]21C (some centres not stated) | inactive: 2.78
CC[C@H](C(=O)[C@H](C)[C@@H](O)[C@@H](C)[C@@H]1O[C@@H]([C@@H](CC)C(=O)O)CC[C@H]1C)[C@H]1O[C@]2(C=C[C@@H](O)[C@]3(CC[C@@](C)([C@H]4CC[C@](O)(CC)[C@H](C)O4)O3)O2)[C@H](C)C[C@H]1C [Salinomycin (Procoxacin)] | inactive: 1.62
C/C(=C\C(=O)OCCCCCCCCC(=O)O)C[C@@H]1OC[C@H](C[C@@H]2O[C@H]2[C@@H](C)[C@H](C)O)[C@@H](O)[C@H]1O [Mupirocin] | inactive: 2.77
Clc1ccccc1C(c1ccccc1)(c1ccccc1)n1ccnc1 [Clotrimazole] | inactive: 1.15
Clc1ccccc1C(c1ccccc1)(c1ccccc1)n1ccnc1 | inactive: 1.63
Cl.N=C(N)NC(=O)c1nc(Cl)c(N)nc1N | inactive: 1.25
O=C(O)[C@@H](S)[C@@H](S)C(=O)O | inactive: 3.49
O=C(O)c1ccc[n+]([O-])c1 | inactive: 3.88
CC(C)c1cc2c(c(O)c1O)[C@@]1(C(=O)O)CCCC(C)(C)C1CC2 (some centres not stated) | inactive: 2.53
COC1(C2=NCCN2)COc2ccccc2O1.Cl (configuration not stated) | inactive: 1.47
CC(C)(C)NCC(O)c1cc(Cl)c(N)c(Cl)c1.Cl (configuration not stated) | inactive: 0.951
CC(=O)O[C@H]1C[C@@H](O)C(C)(C)C2C[C@@H](OC(C)=O)[C@]3(C)C(CC[C@@]4(C)[C@H](c5ccoc5)OC(=O)C5OC543)[C@]21C (some centres not stated) | inactive: 1.71
CS(=O)(=O)O.O.O=C(O[C@@H]1C[C@@H]2C[C@H]3C[C@H](C1)N2CC3=O)c1c[nH]c2ccccc12 [Dalasetron Mesylate Hydrate] | inactive: 0.523
CC12CC3CC(C)(C1)CC(N)(C3)C2.Cl [Memantine hydrochloride] | inactive: 3.25
CC12CC3CC(C)(C1)CC(N)(C3)C2.Cl | inactive: 0.307
C[C@H](CCC(=O)O)[C@H]1CC[C@H]2[C@@H]3CC[C@@H]4C[C@H](O)CC[C@]4(C)[C@H]3C[C@H](O)[C@]12C [Deoxycholic acid] | inactive: 2.47
O=C1NC(=O)C(c2ccccc2[N+](=O)[O-])=C1Nc1ccc(O)c(Cl)c1 | inactive: 2.21
